From patent publication US20230322822A1, “ARYL PHOSPHOROUS OXIDE COMPOUNDS AND USE THEREOF” (Chengdu Di'ao Jiuhong Pharmaceutical Factory, priority 2020, published 2023)
At least one compound was matched to its structure with a doubt left.

Test system: NCI-H3122 cells
Assay: In vivo pharmacodynamic study, subcutaneously implanted tumor NCI-H3122 (two-sided model)
Set-up: species or system BALB/c nude mouse
Conditions: Crizotinib 50 mg/kg
Description: Passages were treated twice a week. When the cell number reached requirement, the cells were collected, counted and inoculated.
Administration mode and frequency: oral gavage was carried out with an administration volume of 10 mL/kg, and the model group was administered with the same volume of solvent. The administration was once per day and continuously carried out for 16 days.
General conditions such as spirit, activity, food intake and the like of the mice were observed every day, and the weight was measured thrice every week; the short diameter (a) and the long diameter (b) of each mouse tumor were measured thrice a week with a vernier caliper, and the tumor volume was calculated according to the formula (a^2×b)/2. The Relative Tumor Volume (RTV) was calculated from the measured tumor volume, wherein RTV=Vt/V0, wherein V0 was the tumor volume at random grouping (i.e., d0) and Vt was the tumor volume at each measurement (i.e., dn). The relative tumor proliferation rate of the evaluation index of the anti-tumor activity was calculated according to the following formula: relative tumor proliferation rate T/C (%): […]
Note: TRTV: treatment group RTV; CRTV model control group RTV.

With `COc1cc(N2CCC(N3CCN(C)CC3)CC2)c(C)cc1Nc1ncc(Br)c(Nc2ccc(C)cc2P(C)(C)=O)n1` [Compound 2] the “Effect on tumor growth (in words)” value was “obviously inhibit the tumor growth”.
